# Percent effect of library compounds

By UniProt entry, the sequences of proteins in these tests, tags left out. Residues count along the entry.
UniProt A4I591, 1-473: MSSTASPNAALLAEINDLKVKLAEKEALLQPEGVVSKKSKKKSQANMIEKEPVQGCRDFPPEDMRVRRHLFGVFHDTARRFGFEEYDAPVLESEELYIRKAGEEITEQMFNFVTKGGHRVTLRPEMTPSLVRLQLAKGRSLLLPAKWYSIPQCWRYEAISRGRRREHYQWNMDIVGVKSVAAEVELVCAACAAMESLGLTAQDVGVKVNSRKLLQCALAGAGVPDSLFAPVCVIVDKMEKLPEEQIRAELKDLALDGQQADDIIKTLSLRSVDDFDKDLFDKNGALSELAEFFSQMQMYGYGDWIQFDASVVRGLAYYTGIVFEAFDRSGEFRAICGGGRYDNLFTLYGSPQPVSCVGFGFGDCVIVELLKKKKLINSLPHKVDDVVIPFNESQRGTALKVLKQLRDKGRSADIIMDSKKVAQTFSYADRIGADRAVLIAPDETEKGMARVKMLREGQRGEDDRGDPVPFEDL
UniProt Q8IDJ8, 1-583: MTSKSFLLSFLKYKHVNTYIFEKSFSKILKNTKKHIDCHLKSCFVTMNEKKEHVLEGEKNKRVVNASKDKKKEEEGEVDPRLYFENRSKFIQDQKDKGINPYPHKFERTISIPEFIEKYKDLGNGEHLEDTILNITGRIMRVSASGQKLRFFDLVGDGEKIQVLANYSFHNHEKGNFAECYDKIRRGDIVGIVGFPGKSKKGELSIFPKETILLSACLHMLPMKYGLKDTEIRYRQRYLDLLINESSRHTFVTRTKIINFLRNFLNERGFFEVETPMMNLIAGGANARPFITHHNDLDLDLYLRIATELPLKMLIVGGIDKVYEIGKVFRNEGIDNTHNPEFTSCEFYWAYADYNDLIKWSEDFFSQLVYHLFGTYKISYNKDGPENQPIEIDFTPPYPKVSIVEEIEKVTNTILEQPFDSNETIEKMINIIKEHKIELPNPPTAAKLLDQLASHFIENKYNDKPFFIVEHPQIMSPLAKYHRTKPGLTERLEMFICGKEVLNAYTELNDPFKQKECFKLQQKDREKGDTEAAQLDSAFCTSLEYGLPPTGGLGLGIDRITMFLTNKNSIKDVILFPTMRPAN
UniProt Q4DA54, 1-478: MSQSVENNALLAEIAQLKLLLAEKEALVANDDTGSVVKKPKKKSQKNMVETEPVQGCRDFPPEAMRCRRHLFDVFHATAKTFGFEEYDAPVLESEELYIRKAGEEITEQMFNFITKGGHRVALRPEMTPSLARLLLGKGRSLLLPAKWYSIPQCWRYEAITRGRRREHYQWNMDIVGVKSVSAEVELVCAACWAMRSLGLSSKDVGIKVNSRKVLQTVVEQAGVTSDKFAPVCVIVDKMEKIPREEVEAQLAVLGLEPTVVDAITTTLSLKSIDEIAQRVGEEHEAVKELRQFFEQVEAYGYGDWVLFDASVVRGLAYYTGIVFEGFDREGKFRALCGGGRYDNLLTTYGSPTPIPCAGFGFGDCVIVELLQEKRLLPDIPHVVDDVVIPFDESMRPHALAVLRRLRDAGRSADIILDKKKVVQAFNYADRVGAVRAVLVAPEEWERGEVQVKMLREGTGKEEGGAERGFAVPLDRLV

Data taken from ChEMBL document CHEMBL3988442, “University of Dundee, Small-Polar-MMV Screening Library” (2021).

A: 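Enzyme assay of histidyl-tRNA synthetase; the read-out is not stated. Target: Histidine-tRNA ligase, Leishmania infantum (UniProt A4I591). Compounds at 30 µM. The record gives no direction; compounds that gave an IC50 in retests scored well above the rest, so higher reads as stronger inhibition. The assay is labelled LdHisRS but filed under L. infantum. About 69,000 compounds were tested under these conditions; 0.6% (about 410) showed 50% or more at least once.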
B: 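Lysine-tRNA ligase, Plasmodium falciparum 3D7 (UniProt Q8IDJ8). Enzyme assay of the cytosolic lysyl-tRNA synthetase in 384-well plates, read by luminescence. Tested at 30 µM. Higher reads as stronger inhibition, judged from the few compounds that gave an IC50. Size under these conditions: about 69,000 compounds, about 49 of them at 50% or above in at least one test.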
C: 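Histidine-tRNA ligase, Trypanosoma cruzi CL Brener (UniProt Q4DA54). Enzyme assay of histidyl-tRNA synthetase; the read-out is not stated. Concentration: 30 µM. The record gives no direction; compounds that gave an IC50 in retests scored well above the rest, so higher reads as stronger inhibition. About 69,000 compounds were tested under these conditions; 0.045% (about 31) showed 50% or more at least once.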

Values are the deposited “Percent Effect”, in %.
The controls that fix the scale are not given in the record; negative values are as filed.
This is an unselected part of the compounds tested.

CC(C)CN1CCN(C(=O)NCc2cccnc2-n2cccn2)CC1 gave A: 14.86%; B: -2.859%; C: 4.906%. For CCCc1ccc(CN2CCC3(CCC(=O)N(C(C)C(=O)O)C3)CC2)o1 (stereo not given) the result was A: 10%; B: 0.2957%; C: 3.478%. CCc1n[nH]c(C(=O)NCCn2nccc2C)c1C gave A: 5.674%; B: 0.1373%; C: 12.41%. For COc1ccc(-c2cc(-c3nc(CN4CCN(C)CC4)no3)[nH]n2)cc1 the result was A: 14.29%; B: 5.638%; C: -2.564%. With O=C(c1cnn(-c2ccccc2)n1)N1CCCC(n2cccn2)C1 (stereo not given) the screen gave A: 12.07%; B: 3.387%; C: -23.16%. Cc1nonc1NC(=O)C1SCCc2sccc21 (stereo not given) gave A: 1.667%; B: 12.53%; C: 6.494%. Result for Cc1cc(N2CCCC2c2nccnc2C)ncn1 (stereo not given) was A: 12%; B: -0.007606%; C: 1.498%. CCc1cc(C(=O)N2CCC3(CCCN(CCOC)C3=O)C2)cs1 (stereo not given) gave A: 1.754%; B: 3.929%; C: -1.093%.

CCOC(=O)N1CCC(OC)c2ccccc2N(C)C(=O)C1 (stereo not given) read A: 10.2%; B: 3.372%; C: 3.371%. CCn1ncc2c1CN(C(=O)Cc1cccs1)CC2COC (stereo not given) gave A: 20.51%; B: 6.115%; C: 0%. COc1ccc(NC(C)C(=O)N2CCN(c3ncccn3)CC2)cn1 (stereo not given) gave A: 30.77%; B: 5.274%; C: 1.653%. For Cc1csc(C2(NCc3csc(C4CC4)n3)CCCC2)n1 the result was A: 8.602%; B: 4.71%; C: 3.627%. With CCOCCCn1c(NC(=O)c2cc(C)on2)nc2ccccc21 the screen gave A: 13.46%; B: -1.549%; C: 2.857%. Result for Cc1nc2sccn2c1C(=O)N1CCc2[nH]cnc2C1 was A: 25.33%; B: -2.635%; C: -1.734%. O=S(=O)(N1CCCCC1)N1CCC(Oc2cnccn2)CC1 read A: 7.292%; B: 2.373%; C: 7.447%. For CS(=O)(=O)NCc1ncn2c1CN(C(=O)CC1CCCC1)CCC2 the result was A: -1.961%; B: 2.826%; C: 1.639%.

Cn1cc(CN2CCC3(CCCN3S(C)(=O)=O)CC2)cn1 gave A: -7.843%; B: -6.364%; C: 1.639%. With Cc1nnc(NC(=O)NCc2ccc(OC3CCCC3)nc2)s1 the screen gave A: 3.846%; B: -0.4841%; C: 1.143%. NS(=O)(=O)c1ccc(NC(=O)CSc2ccc3c(c2)CCC3)cc1 read A: 1.923%; B: 15.07%; C: -4.813%. For CCn1ccnc1CN1CCN(c2nccc(OC)n2)CC1C (stereo not given) the result was A: 11.9%; B: -4.277%; C: 10.59%. Result for N#Cc1ncn(CCC(=O)Nc2ccc(F)c(F)c2)n1 was A: 18.09%; B: 1.824%; C: 9.045%. For CC1(C)CNC(=O)c2nc(CCN3CCC(C(N)=O)CC3)[nH]c2C1 the result was A: 14.4%; B: 3.484%; C: -0.9804%. Cc1nn(C)c2c(=O)n(CC(=O)NCCN3CCCCCC3)ccc12 read A: 16.3%; B: 5.492%; C: 2.97%. For CC(=O)N1CCCN(CCCc2ccccc2)CC1 the result was A: 3.665%; B: 0.6444%; C: 6.952%.

For Cc1cc(NC(=O)C(C)N2CCN(c3ccc(C#N)cc3F)CC2)no1 (stereo not given) the result was A: 9.756%; B: 4.259%; C: 4.327%. With CO[C@@H]1CCN(c2nnc(C)s2)C[C@@H]1Cc1ccccc1 the screen gave A: 13.89%; B: 2.737%; C: 7.463%. CSCCC(NC(=O)c1ccc2ccccc2n1)C(=O)N(C)C (stereo not given) gave A: -4%; B: -6.898%; C: -5.202%. With CC(C)N1CCC2(CC1)CC(c1cccnc1)C(=O)N2 (stereo not given) the screen gave A: 19%; B: 0.362%; C: 7.143%. O=C(c1cc(-n2cccn2)ccn1)N1CCOc2ncccc21 gave A: 15.15%; B: 2.589%; C: 3.261%. Result for Cc1ncncc1C(=O)N1CCCN(Cc2ncc(Cl)n2C)CC1 was A: 1.667%; B: -4.663%; C: 8.824%. Result for Cc1ccc(C(=O)N(C)CC(=O)N2CCCC2)c(C)c1 was A: 15.5%; B: -1.362%; C: 5.952%. For Cn1nnc(NCc2ccccc2OCc2ccc(Cl)cc2)n1 the result was A: -15.07%; B: -1.576%; C: -19%.

With COc1cc(C(C)=O)ccc1OCCNCc1ccco1 the screen gave A: 13.11%; B: 3.345%; C: 7.071%. COc1ccc(CN(C)C(=O)CCC(=O)c2cccs2)c(OC)c1OC read A: 20.95%; B: 0.4459%; C: 3.306%. Result for COc1cccc([C@@H]2CN(C(=O)c3ccc(C)cc3O)C[C@H]2C(=O)O)c1 was A: 16.98%; B: 1.1%; C: -2.542%. Result for CCc1cnc(N2Cc3cnc(C(C)(C)C)nc3C2)nc1 was A: 13.33%; B: 3.066%; C: 4.891%. O=C(COCC1CC1)N1CCCC(n2ccnc2)C1 (stereo not given) read A: 18.92%; B: -2.928%; C: -1.128%. Result for O=C(CN(Cc1cccc(F)c1)CC1CCCO1)N1CCCC1 (stereo not given) was A: 10.96%; B: -1.495%; C: 1.622%.